# The whole screen tested about 300,000 compounds, of which about 5,400 (1.8%) were called active. The shares of active, inactive and inconclusive entries below differ from those in the screen. The call rests on the fitted dose curve; tested in HEK293 cells. Where the call is inconclusive, the potency comes from a doubtful curve fit.
# Assay: qHTS for inhibitors of binding or entry into cells for Marburg Virus
# Conditions: Marburg virus pseudotyped entry inhibition, cell reporter; activity change, negative = inhibition: at 37.8 µM (top of the series) unless noted
# On the % scale 0 is the no-effect control and ±100 the full control effect; potency means the concentration at half of the fitted maximal effect.
Compound,Potency,"activity change, negative = inhibition"
Cc1ccccc1NC(=O)c1cccc(Cn2cc(Br)c([N+](=O)[O-])n2)c1,"inconclusive: 28.2 µM [inhibitor, single point]",
COc1ccc(C(=O)Nc2ccc3cn[nH]c3c2)c(OC)c1,,inactive: 8.69% [at 46.1 µM]
CC(C)COC(=O)n1c(SCC(=O)N(C)C)nc2ccccc21,"inconclusive: 5.62 µM [inhibitor, single point]",
Clc1ccc(CSc2ncccn2)cc1,"inconclusive: 23.1 µM [activator, single point]",
O=C1N/C(=N\N=C\c2cccnc2)SC1Cc1ccc(SC(F)F)cc1 (stereo not drawn),"inconclusive: 29.1 µM [inhibitor, single point]",
O=C(c1cccc([N+](=O)[O-])c1)c1cc2ccccc2o1,,inactive: 13.2%
CC(=O)O[C@H]1CCC2C3CCC4=CC(=O)CCC4=C3C=C[C@@]21C (stereo partly drawn),,inactive: -15%
CCOc1ncccc1C(=O)Nc1cccc(Cl)c1Cl,"inconclusive: 2.82 µM [activator, single point]",
CCc1ccccc1NC(=S)N(CCN1CCCCC1)Cc1ccco1,"inconclusive: 14.1 µM [inhibitor, single point]",
CC(C)CN1CCC(C(=O)N2CCN(c3ccccc3F)CC2)CC1,"inconclusive: 2 µM [activator, partial curve, poor fit]",
CCCOc1ccc(NC(=O)Cc2ccc(S(=O)(=O)N3CCOCC3)s2)cc1OCCC,"inconclusive: 35.5 µM [inhibitor, single point]",
Cc1cc(Cl)ccc1OC(C)C(=O)Nc1ccccc1N1CCOCC1 (stereo not drawn),"inconclusive: 3.16 µM [inhibitor, partial curve, poor fit]",
CNC(=O)C[C@H](C(=O)O)c1ccc(OC(C)C)cc1,,inactive: -6.89%
COCCCn1c(N)c(C(=O)OCCOC)c2nc3ccccc3nc21,"inconclusive: 6.31 µM [inhibitor, partial curve, poor fit]",
OCCC1CN(Cc2cn[nH]c2C2CCCCC2)CCN1Cc1ccccc1 (stereo not drawn),"inconclusive: 35.5 µM [inhibitor, single point]",
COc1ccc(C(=O)NCc2nnc(SCC(=O)N3CCCC3)o2)cc1OC,,inactive: 19.7%
CCc1nn(C(C)C(=O)N2CCc3ccccc3C2)c(=O)c2cc3occc3n12 (stereo not drawn),,inactive: -8.57%
Cc1ccc2c(CN(C)Cc3cccc(Cl)c3)cc(=O)oc2c1C,"inconclusive: 3.55 µM [inhibitor, single point]",
O=C(NCCC1=CCCCC1)c1cccc2c1C(=O)N(C1CCCCC1)C2,"inconclusive: 18.3 µM [inhibitor, single point]",
CCOC(=O)c1sc(NC(=O)c2cc3ccccc3o2)nc1C,"inconclusive: 35.5 µM [inhibitor, single point]",
Fc1ccc2[nH]c3c(N4CCSCC4)ncnc3c2c1,active: 10 µM,
COc1cc(OC)cc(C(=O)N/N=C(\C)CC(=O)Nc2ccccn2)c1,"inconclusive: 0.562 µM [inhibitor, full curve, poor fit]",

# Three entries from above, arranged by count of non-hydrogen atoms, high to low.
Compound,Potency,"activity change, negative = inhibition"
O=C(NCCC1=CCCCC1)c1cccc2c1C(=O)N(C1CCCCC1)C2,"inconclusive: 18.3 µM [inhibitor, single point]",
CC(C)CN1CCC(C(=O)N2CCN(c3ccccc3F)CC2)CC1,"inconclusive: 2 µM [activator, partial curve, poor fit]",
CC(=O)O[C@H]1CCC2C3CCC4=CC(=O)CCC4=C3C=C[C@@]21C (stereo partly drawn),,inactive: -15%

# More results:

Compound,Potency,"activity change, negative = inhibition"
Cc1cccc(C)c1NC(=S)N(CCCN1CCCCC1)Cc1ccco1,"inconclusive: 20 µM [inhibitor, single point]",
Cc1cc(NS(=O)(=O)c2ccc(NC(=O)Nc3cccc(C(F)(F)F)c3)cc2)no1,,inactive: 0.0906% [at 46.1 µM]
COc1ccc(-n2c(O)c(Cc3ccccc3)c(=O)n3nc(-c4ccccc4)c(=O)cc23)cc1,,inactive: 13.4%
O=P(c1ccccc1)(c1ccccc1)c1nc(-c2ccccc2)oc1N1CCOCC1,,inactive: -25.6%
COC(=O)c1sc(-c2ccccc2)cc1NC(C)=O,"inconclusive: 12.6 µM [inhibitor, partial curve, poor fit]",
CCOC(=O)C1CCCN(c2c(C(=O)c3ccccc3)cnc3ccc(F)cc23)C1 (stereo not drawn),"inconclusive: 3.55 µM [inhibitor, single point]",
COc1ccc2nc(SCC(=O)Nc3ccccc3C#N)[nH]c2c1,"inconclusive: 0.891 µM [activator, full curve, poor fit]",
COc1cc(CN2CCN(Cc3ccc(C)cc3)CC2)c([N+](=O)[O-])cc1OC,"inconclusive: 35.5 µM [inhibitor, single point]",
COCCNC(=O)c1cc(-c2ccc(-c3ccccc3)cc2)nc2ccccc12,"inconclusive: 0.891 µM [inhibitor, full curve, poor fit]",
COc1ccccc1-n1cnnc1SCC(=O)c1cc(C)n(Cc2cccs2)c1C,,inactive: 3.16%
N[C@@H](Cc1c[nH]c2ccccc12)c1nnc(SCc2ccc(Cl)cc2)o1,"inconclusive: 32.6 µM [inhibitor, partial curve, poor fit]",
CC(NC(=O)CCn1nc(-c2ccc(Cl)cc2)ccc1=O)c1ccccc1 (stereo not drawn),,inactive: 16.8% [at 46.1 µM]
COc1ccc(CNC(=O)N2CCc3ccccc3C2)cc1,"inconclusive: 14.1 µM [activator, single point]",
CCOc1ccc(-n2c(SCc3nc(-c4ccc(C)cc4)no3)nnc2-c2ccncc2)cc1,"inconclusive: 11.6 µM [inhibitor, partial curve, poor fit]",
COc1cccc(Cn2nnc(C(=O)NCc3ccc(Cl)cc3Cl)c2N)c1,"inconclusive: 35.5 µM [activator, single point]",
CC(C)CCn1c(=O)c2c(nc3n2CCCN3Cc2ccccc2)n(C)c1=O,"inconclusive: 14.1 µM [inhibitor, partial curve, poor fit]",
C/C(=N\NC(=O)c1ccc(Br)cc1)c1cccnc1,"inconclusive: 0.562 µM [activator, full curve, poor fit]",
CCN(CC(=O)Nc1c(F)cccc1F)C(=O)c1ccc(N2CCCCC2)c([N+](=O)[O-])c1,"inconclusive: 10 µM [inhibitor, partial curve, poor fit]",
CCN(CC(=O)Nc1ccc2c(c1)OCCO2)C(=O)c1cccc(OCC(C)C)c1,,inactive: 29%
CCn1c(SCC(=O)N/N=C/c2ccc(C)o2)nnc1-c1ccc(C(C)(C)C)cc1,,inactive: -20.9%
CCN(CC)c1ccc(/C=N/n2c(-c3ccccc3Br)n[nH]c2=S)cc1,"inconclusive: 39.8 µM [inhibitor, partial curve, poor fit]",
